27 sequences from the supplement of paper PMC10338343 can be followed below.

± gives the standard deviation. This is a selection; strong and weak results do not stand in their true shares. The uncertainty is large for many entries.

One assay concerns MILI (PIWIL2) piRISC loaded with L1MC piRNA (26 nt). The assay can be described thus: pre-steady-state target cleavage rate (min^-1); MIWI and MILI are mouse PIWI proteins and EfPiwi is from a freshwater sponge; tags in brackets are library labels; higher = faster piRNA-guided slicing of the target. To be noted: guide: L1MC piRNA 5'p-UAACUAAAUACUAUGCAAGCUGUAGG; auxiliary factor: 500 nM mouse GTSF1. How it is done: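 Cleave-'n-Seq: a library of target RNAs (target site embedded in constant flanks, ACAGCATTCCGCGTTAGTGATATCCG... 5' flank; DNA-blocked outside the site) at 0.1 nM was incubated with 1 nM active mouse MILI or MIWI piRISC (synthetic 5'-monophosphorylated piRNA guide) with or without 500 nM mouse GTSF1 at 33 °C for 1 min to 16 h. Uncleaved targets were sequenced and normalised to non-target controls, and the pooled three trials were fitted to a burst-and-steady-state model to give the pre-steady-state cleavage rate (min^-1; k3 is constrained to at most 1e-4). Sequence is the target site only; target names encode pairing extent (gX:gY) and contiguous / 1-mismatch / 2-mismatch / bulge geometry. Fits with R² ≤ 0 are excluded.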
For the sequence UCCUGGAUCAGCUUGCAUAGUAUAAAGUUA, the “pre-steady-state target cleavage rate” value worked out at 0.171 ± 0.018.
The same measure, in the same setting: the same measure for UCCUGGACCAGCUUGCAUAGUAUUUAGUUA: 0.246 ± 0.02; for UCCUGCCUACAGCUUGCAUAGUAUUUAGUUA: 0.342 ± 0.022; for UCCUGGAACAGCUUGCAUAGUAUAUAGUUA: 0.296 ± 0.029.
On the same count and under the same terms, to UCCUGGAACAGCUUGCAUAGUUUUUAGUUA belongs 0.0586 ± 0.01.
Same read-out and setting: the same measure for UCCUGGUACAGCGUUGCAUAGUAUUUAGUUA: 0.196 ± 0.027; for UCCUCCUACACCUUGCUUAGUAUUUAGUUA: 0.193 ± 0.022.
As to UCCUGCUACAGCUUGCAUAGUAUUUAGUAUA, the “pre-steady-state target cleavage rate” value turned out to be 0.292 ± 0.044.
On the same count and under the same terms, the same measure for UCCUGGAUCAGCUUGCAUAGUAUUUAGUUUA: 0.358 ± 0.025; for UCCUGGAUGCGCUUGCAUAGUAUUUAGUUA: 0.239 ± 0.016; for UCCUGGUACAGCAUGGAUAGUAUUUAGUUA: 0.197 ± 0.019.
Same read-out and setting: to UCCUGGUACACCUUGCAUAGUAUUUACAAA belongs 0.046 ± 0.018; to UCCUGCUUCAGCUUGCAUAGUAUUUUGUUA, 0.144 ± 0.025.
Turning to UCCUCCUACAGCUUGCAUAGUAAAUAGAAA, the “pre-steady-state target cleavage rate” value was 0.0692 ± 0.02.
The same measure, in the same setting: to UCCUGGAUGUCGAACGUAAGUUUAUAGUUA belongs 0.000209 ± 0.033.

The same assay, now with this note: guide: L1MC piRNA 5'p-UAACUAAAUACUAUGCAAGCUGUAGG; auxiliary factor: none (no GTSF1).
On to UCCUGGAUCAGCUUGCAUAGUAUAAAGUUA, for which the “pre-steady-state target cleavage rate” value worked out at 0.00561 ± 0.0029.
The same measure, in the same setting: the same measure for UCCUGGAUCAGCUUGCAUAGUAAAAAGUUA: 0.00178 ± 0.005.
Still for that read-out and setting: the same measure for UCCUGGACCAGCUUGCAUAGUAUUUAGUUA: 0.00604 ± 0.0027; for UCCUGCUACAGCUUGCAUAGAUAUUUCAAA: 0.000684 ± 0.0095.
As to UCCUGGAACAGCUUGCAUAGUAUAUAGUUA, the “pre-steady-state target cleavage rate” value was determined as 0.00847 ± 0.0025.
In the case of UCCUGGAACAGCUUGCAUAGUUUUUAGUUA, the “pre-steady-state target cleavage rate” value is 0.00493 ± 0.0022.
Turning to UCCUGGUACAGCGUUGCAUAGUAUUUAGUUA, the “pre-steady-state target cleavage rate” value amounted to 0.0109 ± 0.0053.
Same read-out and setting: the same measure for UCCUCCUACAGCUUGCAUAGUAUUAUGAAA: 0.00121 ± 0.0059.
Regarding UCCUGGAACAGGUUGCAUAGUAUUUAGAAA, the “pre-steady-state target cleavage rate” value was found to be 0.00159 ± 0.0031.
Same read-out and setting: the same measure for UCCUCCUACACCUUGCUUAGUAUUUAGUUA: 0.00665 ± 0.0019; for UCCUGGAACAGCUUGGUUAGUAUUUACAAA: 0.00195 ± 0.0031; for UCCUCCUACAGCUUGCAUGAGUAUUUAGUUA: 0.00158 ± 0.0036.
On the same count and under the same terms, the same measure for UCCUGCUACAGCUUGCAUAGUAUUUAGUAUA: 0.00202 ± 0.0042; for UCCUGGAUGUCGAACGUUAGUAUUAGUUA: 0.000167 ± 0.021; for UCCUGCUAGUCCUUGCAUAGUAUUUAGAAA: 0.00104 ± 0.005.
Consider UCCUGGAUCAGCUUGCAUAGUAUUUAGUUUA, for which the “pre-steady-state target cleavage rate” value was 0.00718 ± 0.0026.
With UCCUGGAUGCGCUUGCAUAGUAUUUAGUUA, the “pre-steady-state target cleavage rate” value was found to be 0.0108 ± 0.0028.
On the same count and under the same terms, to UCCUGGAUGUCGAACCAUAGUAUUGAGUUA belongs below 0.0001.
As to UCCUGGUACAGCAUGGAUAGUAUUUAGUUA, the “pre-steady-state target cleavage rate” value is 0.0172 ± 0.0046.
For UCCUGGUACACCUUGCAUAGUAUUUACAAA, the “pre-steady-state target cleavage rate” value worked out at 0.00145 ± 0.0056.
On the same count and under the same terms, to UCCUGGAUGUGCUUCCAUAGUAUAUAGUUA belongs 0.000401 ± 0.015; to UCCUCCUACACCUUGCAUAGUAUUUUGUUA, 0.00176 ± 0.004; to UCCUGCUUCAGCUUGCAUAGUAUUUUGUUA, 0.00322 ± 0.0024.
Still for that read-out and setting: to UCCUGCUACAGCUAGCAUAGUAUUUUCAAA belongs 0.000623 ± 0.01.
On the same count and under the same terms, the same measure for UCCUCCUACAGCUUGCAUAGUAAAUAGAAA: 0.00115 ± 0.0054.
With UCCUGGAUGUCGAACGUAAGUUUAUAGUUA, the “pre-steady-state target cleavage rate” value was 0.000272 ± 0.022.
